Results published in article PMC6950567, “Evaluation of Marine Diindolinonepyrane in Vitro and in Vivo: Permeability Characterization in Caco-2 Cells Monolayer and Pharmacokinetic Properties in Beagle Dogs” (Marine Drugs, 2019).

Assay: Recovery of 2,5-BHPA from beagle dog plasma (methanol extraction, HPLC)

With `CC(C)=CCCC(C)=CCCC1(C)Oc2c(c(O)cc3c2CN(CCCC(C(=O)O)N2Cc4c(cc(O)c5c4OC(C)(CCC=C(C)CCC=C(C)C)C(O)C5)C2=O)C3=O)CC1O` (stereo not drawn) [2,5-BHPA, 2,5-Bis-[8-(4,8-dimethyl-nona-3,7-dienyl)-5,7-dihydroxy-8-methyl-3-keto-1,2,7,8-tertahydro-6H-pyran[a]isoindol-2-yl]-pentanoic acid] the Recovery (1.0 μg·mL^−1) was 98.36 ± 6.38%, the Recovery (100 μg·mL^−1) was 102.26 ± 4.69% and the Recovery (400 μg·mL^−1) was 96.58 ± 5.61%.
